Assay: in vivo
Conditions: mouse, iv, Maus i.v.

Which LD50 does the source give for COC(=O)C1=C(C)NC(C)=C(C(=O)OC)C1c1ccccc1[N+](=O)[O-] [Nifedipin, reference compound] here?
The LD50 was 4.2 mg/kg.

— EP0322396A1, “Benzimidazole derivatives, their preparation and use” (Gerot-Pharmazeutika Gesellschaft m.b.H., priority 1987, dated 1989)
